The results in this text go back to paper PMC8880919.

Sequences of proteins named here, by UniProt entry; tags and fusion partners are left off.
UniProt O94267: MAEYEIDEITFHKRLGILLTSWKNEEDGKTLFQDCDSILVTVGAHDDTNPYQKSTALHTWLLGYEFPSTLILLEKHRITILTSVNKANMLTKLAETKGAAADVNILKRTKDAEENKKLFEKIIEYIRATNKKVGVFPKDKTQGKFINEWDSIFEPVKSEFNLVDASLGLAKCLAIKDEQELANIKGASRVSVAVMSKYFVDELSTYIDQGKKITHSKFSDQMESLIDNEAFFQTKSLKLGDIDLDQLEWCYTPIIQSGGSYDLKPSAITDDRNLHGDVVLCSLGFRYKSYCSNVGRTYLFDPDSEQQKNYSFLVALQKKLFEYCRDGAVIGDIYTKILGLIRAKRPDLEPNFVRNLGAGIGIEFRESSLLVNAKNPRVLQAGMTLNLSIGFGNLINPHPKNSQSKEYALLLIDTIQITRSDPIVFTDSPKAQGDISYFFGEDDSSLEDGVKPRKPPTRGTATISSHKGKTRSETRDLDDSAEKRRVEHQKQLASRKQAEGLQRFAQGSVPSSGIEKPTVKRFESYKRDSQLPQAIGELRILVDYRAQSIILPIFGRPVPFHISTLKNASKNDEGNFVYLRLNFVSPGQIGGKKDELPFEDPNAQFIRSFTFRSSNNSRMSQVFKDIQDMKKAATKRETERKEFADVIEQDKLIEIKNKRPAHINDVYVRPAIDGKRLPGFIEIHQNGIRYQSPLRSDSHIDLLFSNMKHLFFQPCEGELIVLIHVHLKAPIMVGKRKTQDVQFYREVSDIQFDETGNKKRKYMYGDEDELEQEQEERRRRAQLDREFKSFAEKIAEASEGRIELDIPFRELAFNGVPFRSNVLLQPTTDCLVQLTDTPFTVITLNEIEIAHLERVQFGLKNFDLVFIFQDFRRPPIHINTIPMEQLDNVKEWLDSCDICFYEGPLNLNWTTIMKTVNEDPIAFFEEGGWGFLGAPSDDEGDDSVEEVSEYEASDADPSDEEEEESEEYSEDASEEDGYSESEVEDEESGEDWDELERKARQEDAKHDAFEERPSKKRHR

Common to all, as to experiment: co-IP; protein extracts of wild type S. pombe cells expressing chromosomally tagged proteins; 500 ug protein, IP with anti-MYC or anti-FLAG overnight at 4 C, protein A/G sepharose; lysis buffer PBS pH 7.0, 200 mM NaCl, 0.5 mM EGTA, 0.5 mM EDTA, 0.1% Triton X100; five washes at 220 mM NaCl; blots with anti-HA, anti-FLAG or anti-MYC
One assay concerns the target T1, Bdf1 (S. pombe) (UniProt Q9Y7N0).
T1 sequence: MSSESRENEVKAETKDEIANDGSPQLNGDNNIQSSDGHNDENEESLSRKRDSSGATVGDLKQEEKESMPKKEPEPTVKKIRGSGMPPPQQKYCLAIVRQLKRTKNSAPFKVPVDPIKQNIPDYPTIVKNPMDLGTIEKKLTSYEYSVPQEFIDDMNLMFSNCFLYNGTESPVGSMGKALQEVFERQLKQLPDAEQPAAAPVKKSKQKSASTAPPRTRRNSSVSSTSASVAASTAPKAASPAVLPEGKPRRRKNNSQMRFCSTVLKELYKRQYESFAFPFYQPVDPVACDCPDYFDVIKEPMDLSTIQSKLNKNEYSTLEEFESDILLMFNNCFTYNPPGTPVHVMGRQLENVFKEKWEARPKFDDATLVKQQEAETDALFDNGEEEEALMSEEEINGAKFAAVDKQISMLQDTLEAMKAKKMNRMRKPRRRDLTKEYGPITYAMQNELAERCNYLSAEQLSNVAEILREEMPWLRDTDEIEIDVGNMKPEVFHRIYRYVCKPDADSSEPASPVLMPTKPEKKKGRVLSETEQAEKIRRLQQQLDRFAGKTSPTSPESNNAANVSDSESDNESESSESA

Another assay addresses T2, Med1 (S. pombe) (UniProt Q09696).
T2 sequence: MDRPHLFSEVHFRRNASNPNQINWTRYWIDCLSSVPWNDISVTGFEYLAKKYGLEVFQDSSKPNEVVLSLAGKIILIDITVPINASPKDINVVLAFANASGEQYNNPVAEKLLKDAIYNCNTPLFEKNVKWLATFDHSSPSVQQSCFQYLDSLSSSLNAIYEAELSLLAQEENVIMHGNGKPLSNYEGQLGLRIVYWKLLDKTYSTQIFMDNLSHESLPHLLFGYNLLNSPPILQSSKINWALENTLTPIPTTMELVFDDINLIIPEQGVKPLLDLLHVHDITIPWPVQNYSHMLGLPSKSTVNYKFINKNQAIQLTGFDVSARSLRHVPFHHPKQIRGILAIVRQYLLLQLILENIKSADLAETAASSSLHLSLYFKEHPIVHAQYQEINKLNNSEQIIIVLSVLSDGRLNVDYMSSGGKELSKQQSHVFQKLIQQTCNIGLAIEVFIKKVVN

The target in another assay is Spt16 (S. pombe) (UniProt O94267).
The target of another assay is T3, Taf2 (S. pombe) (UniProt P87121).
T3 sequence: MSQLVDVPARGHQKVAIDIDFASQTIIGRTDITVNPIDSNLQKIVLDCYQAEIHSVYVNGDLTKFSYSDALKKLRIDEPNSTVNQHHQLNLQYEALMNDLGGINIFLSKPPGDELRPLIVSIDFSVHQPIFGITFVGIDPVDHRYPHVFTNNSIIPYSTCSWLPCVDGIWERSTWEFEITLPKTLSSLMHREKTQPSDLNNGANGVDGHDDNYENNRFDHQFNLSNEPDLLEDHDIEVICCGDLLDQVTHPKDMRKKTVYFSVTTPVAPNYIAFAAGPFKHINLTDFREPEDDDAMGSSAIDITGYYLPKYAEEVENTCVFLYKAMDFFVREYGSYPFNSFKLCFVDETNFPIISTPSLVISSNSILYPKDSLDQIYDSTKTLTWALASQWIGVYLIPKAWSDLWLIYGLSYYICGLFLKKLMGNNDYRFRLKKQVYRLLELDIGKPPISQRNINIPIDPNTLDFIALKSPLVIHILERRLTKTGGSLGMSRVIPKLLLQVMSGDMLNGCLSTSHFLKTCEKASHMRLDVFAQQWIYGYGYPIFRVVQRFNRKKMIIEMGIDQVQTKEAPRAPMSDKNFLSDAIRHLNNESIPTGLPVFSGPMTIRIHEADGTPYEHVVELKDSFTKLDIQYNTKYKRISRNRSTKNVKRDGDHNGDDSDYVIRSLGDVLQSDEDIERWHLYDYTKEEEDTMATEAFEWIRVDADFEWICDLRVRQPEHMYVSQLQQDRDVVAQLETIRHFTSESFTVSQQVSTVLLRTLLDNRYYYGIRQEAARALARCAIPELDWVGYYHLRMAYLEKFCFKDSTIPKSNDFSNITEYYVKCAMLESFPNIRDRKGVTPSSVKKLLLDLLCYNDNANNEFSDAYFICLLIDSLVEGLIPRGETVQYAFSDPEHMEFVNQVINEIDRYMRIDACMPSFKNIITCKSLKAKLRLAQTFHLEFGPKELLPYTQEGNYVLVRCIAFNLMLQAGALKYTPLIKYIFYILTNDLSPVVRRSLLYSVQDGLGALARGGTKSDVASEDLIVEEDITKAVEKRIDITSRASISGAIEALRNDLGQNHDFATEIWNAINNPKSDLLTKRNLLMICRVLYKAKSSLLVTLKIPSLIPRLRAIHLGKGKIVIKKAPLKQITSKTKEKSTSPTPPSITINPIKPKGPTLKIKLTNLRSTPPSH

No constants are given. Whether binding was seen depends on the method and setting. In cells and extracts the contact can be indirect. Some binding calls cover weakened binding; strength is not graded here.

B1: Gad8 (protein, UniProt Q9P7J8 1-569)
chain: MSWKLTKKLKETHLASAIGLNSGGSSFTRGLKNSTLSSTSSRKSSDEKSRKSSEDKRSPQSTVVQPGLLQVTIIEARNLKLPSGHVPANYGVSIDNSLLAPPLSNGSGHARSRSHAWWLPYIVVEFDKNEILVDALNTASLENPCWDYQATFDVSRYSKLSLNIYLRSSSSRSRNGMGNDAFLGGIKLSPSFIVNKLTDEWVPLHGGSGELRVQMLYKPNQSTPLTIDAFELLKVVGKGSFGKVMQVRKRDTSRIYALKTMKKAHIVSRSEVDHTLAERTVLAQVNNPFIVPLKFSFQSPGKLYLVLAFVNGGELFHHLQREGCFDTYRAKFYIAELLVALECLHEFNVIYRDLKPENILLDYTGHIALCDFGLCKLNMAKTDRTNTFCGTPEYLAPELLLGHGYTKVVDWWTLGVLLYEMITGLPPFYDENINEMYRKILQDPLRFPDNIDEKAKDLLSGLLTRAPEKRLGSGGAQEIKNHPFFDDIDWKKLCAKKIQPPFKPSVESAIDTSNFDSEFTSEIPMDSVVADSHLSETVQQRFANWSYQRPTTIDTSDDINTIAPGSVIR
With B1, the binding result in the assay with Bdf1 (S. pombe) is “no binding”; in the assay with Med1 (S. pombe), “binds”; with Spt16 (S. pombe) it was “binds”; in the assay with Taf2 (S. pombe), “binds”.
